Measured values reported in patent US7189701B1 (Sankt-Petersburgskaya Obschestvennaya Organizatsiya …, priority 1999, dated 2007).
*: point of attachment. Cbz = O=C(OCc1ccccc1)*; OBn = c1ccc(CO*)cc1

Test: general procedure: solution-phase peptide synthesis; N,N'-dicyclohexylcarbodiimide / N-oxybenzotriazole; N-oxysuccinimide esters

In the case of H-Ala-Glu-Asp-Pro-OH, the step yield (late stage modification step) was 86% and the “final HPLC purity” value (purification step, 220 nm) was 98.56%.
Cbz-AE(OBn)D(OBn)P-OBn showed a step yield (coupling step) of 90%.
